# Measurements published in the supplement of paper PMC8728848.
# The list shows a part of the results.
# How the values were obtained:
# Experiment in all cases: glycan array binding signal (z-score within array); higher = stronger binding
# Conditions in all cases: glycan notation: IUPAC condensed, linker removed
# [1] = biological target: Gal(b1-3)GlcNAc(b1-6)[Gal(b1-3)]GalNAc
# Procedure, shortened: (§1)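 Columns mapping to the same glycan were averaged after glycan names were converted to IUPAC-condensed notation. The data come from 3228 arrays in the Consortium for Functional Glycomics database, limited to those with an available protein sequence. Binding is reported as a within-array Z-score averaged across arrays of one protein sequence and across linkers.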
# Gal(b1-3)GlcNAc6S = biological target: Gal(b1-3)GlcNAc6S
# Procedure, shortened: as §1
# [2] = biological target: Gal(b1-3)[Fuc(a1-4)]GlcNAc
# Procedure, shortened: as §1
# [3] = biological target: Gal(b1-3)[Fuc(a1-4)]GlcNAc(b1-2)Man
# Procedure, shortened: as §1
# [4] = biological target: Gal(b1-3)[Fuc(a1-4)]GlcNAc(b1-2)Man(a1-3)[Gal(b1-3)[Fuc(a1-4)]GlcNAc(b1-2)Man(a1-6)]Man(b1-4)GlcNAc(b1-4)[Fuc(a1-6)]GlcNAc
# Procedure, shortened: as §1
# [5] = biological target: Gal(b1-3)[Fuc(a1-4)]GlcNAc(b1-3)Gal(b1-3)[Fuc(a1-4)]GlcNAc
# Procedure, shortened: as §1
# [6] = biological target: Gal(b1-3)[Fuc(a1-4)]GlcNAc(b1-3)Gal(b1-4)[Fuc(a1-3)]GlcNAc
# Procedure, shortened: as §1
# [7] = biological target: Gal(b1-3)[Fuc(a1-4)]GlcNAc(b1-6)GalNAc
# Procedure, shortened: as §1
# [8] = biological target: Gal(b1-3)[GlcNAc(b1-6)]GalNAc
# Procedure, shortened: as §1
# [9] = biological target: Gal(b1-3)[Neu5Ac(a2-6)]GalNAc
# Procedure, shortened: as §1
# [10] = biological target: Gal(b1-3)[Neu5Ac(a2-6)]GlcNAc(b1-4)Gal(b1-4)Glc
# Procedure, shortened: as §1
# [11] = biological target: Gal(b1-3)[Neu5Ac(b2-6)]GalNAc
# Procedure, shortened: as §1
# Gal(b1-4)Gal = biological target: Gal(b1-4)Gal
# Procedure, shortened: as §1
# [12] = biological target: Gal(b1-4)GalNAc(a1-3)[Fuc(a1-2)]Gal(b1-4)GlcNAc
# Procedure, shortened: as §1
# [13] = biological target: Gal(b1-4)GalNAc(b1-3)[Fuc(a1-2)]Gal(b1-4)GlcNAc
# Procedure, shortened: as §1
# Gal(b1-4)Glc = biological target: Gal(b1-4)Glc
# Procedure, shortened: as §1
# Gal(b1-4)Glc6S = biological target: Gal(b1-4)Glc6S
# Procedure, shortened: as §1
# Gal(b1-4)GlcNAc = biological target: Gal(b1-4)GlcNAc
# Procedure, shortened: as §1
# [14] = biological target: Gal(b1-4)GlcNAc(a1-6)Gal(b1-4)GlcNAc
# Procedure, shortened: as §1
# Gal(b1-4)GlcNAc(b1-2)Man = biological target: Gal(b1-4)GlcNAc(b1-2)Man
# Procedure, shortened: as §1
# [15] = biological target: Gal(b1-4)GlcNAc(b1-2)Man(a1-3)Man(b1-4)GlcNAc(b1-4)GlcNAc
# Procedure, shortened: as §1
# [16] = biological target: Gal(b1-4)GlcNAc(b1-2)Man(a1-3)[Gal(b1-4)GlcNAc(b1-2)Man(a1-6)]Man(b1-4)GlcNAc(b1-4)GlcNAc
# Procedure, shortened: as §1
# [17] = biological target: Gal(b1-4)GlcNAc(b1-2)Man(a1-3)[Gal(b1-4)GlcNAc(b1-2)Man(a1-6)]Man(b1-4)GlcNAc(b1-4)[Fuc(a1-6)]GlcNAc
# Procedure, shortened: as §1
# [18] = biological target: Gal(b1-4)GlcNAc(b1-2)Man(a1-3)[Gal(b1-4)GlcNAc(b1-2)Man(a1-6)][Gal(b1-4)GlcNAc(b1-4)]Man(b1-4)GlcNAc(b1-4)[Fuc(a1-6)]GlcNAc
# Procedure, shortened: as §1
# [19] = biological target: Gal(b1-4)GlcNAc(b1-2)Man(a1-3)[Gal(b1-4)GlcNAc(b1-2)Man(a1-6)][GlcNAc(b1-4)]Man(b1-4)GlcNAc(b1-4)[Fuc(a1-6)]GlcNAc
# Procedure, shortened: as §1
# [20] = biological target: Gal(b1-4)GlcNAc(b1-2)Man(a1-3)[GlcNAc(b1-2)Man(a1-6)]Man(b1-4)GlcNAc(b1-4)GlcNAc
# Procedure, shortened: as §1
# [21] = biological target: Gal(b1-4)GlcNAc(b1-2)Man(a1-3)[GlcNAc(b1-4)][Gal(b1-4)GlcNAc(b1-2)Man(a1-6)]Man(b1-4)GlcNAc(b1-4)GlcNAc
# Procedure, shortened: as §1
# [22] = biological target: Gal(b1-4)GlcNAc(b1-2)Man(a1-3)[Man(a1-6)]Man(b1-4)GlcNAc(b1-4)GlcNAc
# Procedure, shortened: as §1
# [23] = biological target: Gal(b1-4)GlcNAc(b1-2)Man(a1-6)Man(b1-4)GlcNAc(b1-4)GlcNAc
# Procedure, shortened: as §1
# [24] = biological target: Gal(b1-4)GlcNAc(b1-2)Man(a1-6)[GlcNAc(b1-2)Man(a1-3)]Man(b1-4)GlcNAc(b1-4)GlcNAc
# Procedure, shortened: as §1
# [25] = biological target: Gal(b1-4)GlcNAc(b1-2)Man(a1-6)[Man(a1-3)]Man(b1-4)GlcNAc(b1-4)GlcNAc
# Procedure, shortened: as §1
# [26] = biological target: Gal(b1-4)GlcNAc(b1-2)[Gal(b1-4)GlcNAc(b1-4)]Man(a1-3)[Gal(b1-4)GlcNAc(b1-2)Man(a1-6)]Man(b1-4)GlcNAc(b1-4)GlcNAc
# Procedure, shortened: as §1
# [27] = biological target: Gal(b1-4)GlcNAc(b1-2)[Gal(b1-4)GlcNAc(b1-4)]Man(a1-3)[Gal(b1-4)GlcNAc(b1-2)[Gal(b1-4)GlcNAc(b1-6)]Man(a1-6)]Man(b1-4)GlcNAc(b1-4)GlcNAc
# Procedure, shortened: as §1
# [28] = biological target: Gal(b1-4)GlcNAc(b1-2)[Gal(b1-4)GlcNAc(b1-4)]Man(a1-3)[GlcNAc(b1-4)][Gal(b1-4)GlcNAc(b1-2)Man(a1-6)]Man(b1-4)GlcNAc(b1-4)GlcNAc
# Procedure, shortened: as §1
# [29] = biological target: Gal(b1-4)GlcNAc(b1-2)[Gal(b1-4)GlcNAc(b1-4)]Man(a1-3)[GlcNAc(b1-4)][Gal(b1-4)GlcNAc(b1-2)[Gal(b1-4)GlcNAc(b1-6)]Man(a1-6)]Man(b1-4)GlcNAc(b1-4)GlcNAc
# Procedure, shortened: as §1
# [30] = biological target: Gal(b1-4)GlcNAc(b1-2)[Gal(b1-4)GlcNAc(b1-6)]Man(a1-6)[Gal(b1-4)GlcNAc(b1-2)Man(a1-3)]Man(b1-4)GlcNAc(b1-4)GlcNAc
# Procedure, shortened: as §1
# [31] = biological target: Gal(b1-4)GlcNAc(b1-2)[Gal(b1-4)GlcNAc(b1-6)]Man(a1-6)[Gal(b1-4)GlcNAc(b1-2)Man(a1-3)]Man(b1-4)GlcNAc(b1-4)[Fuc(a1-6)]GlcNAc
# Procedure, shortened: as §1
binder,measurement,setting,value
PX9916F-bfa-443-24-443 (Bacteroides fragilis) (protein) DIRPVGSVIPQTAEEYRALLARAYLNVPNDRGLACLRSDEMLVNDNEYDRNSYGDIERWNDVSPFPGTSQFTWSNFYNVLFIANQVIESQKEITEGTPEVVNQLVGEAHLLRAYLHFVLVNLHGQPYTKSGALNSKSIPLKLDTDLEKTLGRNTVEEVYTSILSDIEHARELINKEKWETVFSYRFNVLSVDALQSRVSLYMGAWPKCLESAEAVLAKKSVLVDMNETPLALPNHFESVESITALEQVMGSSVNNAVWVPATFLALYQEGDKRLAAYFAAPDENGNRKSSKGGKREFSCTFRVGELYLNAAEAAANMDKLPHARMRLLELMRKRYTPEAYDKKENAVNVMDKNALISEILNERARELAFEGHRWFDLRRTTRPRMVKVLQGKTYILEQDDPRYTIPIPRDAIAANPGLAN,glycan array binding signal (z-score),[1],0
same,glycan array binding signal (z-score),Gal(b1-3)GlcNAc6S,1.4
same,glycan array binding signal (z-score),[2],0.147
same,glycan array binding signal (z-score),[3],-0.292
same,glycan array binding signal (z-score),[4],-0.098
same,glycan array binding signal (z-score),[5],-1.04
same,glycan array binding signal (z-score),[6],0.943
same,glycan array binding signal (z-score),[7],-0.283
same,glycan array binding signal (z-score),[8],-0.813
same,glycan array binding signal (z-score),[9],-0.312
same,glycan array binding signal (z-score),[10],-0.584
same,glycan array binding signal (z-score),[11],-0.941
same,glycan array binding signal (z-score),Gal(b1-4)Gal,-0.978
same,glycan array binding signal (z-score),[12],0.244
same,glycan array binding signal (z-score),[13],-0.937
same,glycan array binding signal (z-score),Gal(b1-4)Glc,-0.474
same,glycan array binding signal (z-score),Gal(b1-4)Glc6S,0.038
same,glycan array binding signal (z-score),Gal(b1-4)GlcNAc,0.011
same,glycan array binding signal (z-score),[14],-0.856
same,glycan array binding signal (z-score),Gal(b1-4)GlcNAc(b1-2)Man,2.63
same,glycan array binding signal (z-score),[15],-0.479
same,glycan array binding signal (z-score),[16],0.717
same,glycan array binding signal (z-score),[17],2.37
same,glycan array binding signal (z-score),[18],-0.624
same,glycan array binding signal (z-score),[19],-0.379
same,glycan array binding signal (z-score),[20],-0.16
same,glycan array binding signal (z-score),[21],-1.04
same,glycan array binding signal (z-score),[22],-0.402
same,glycan array binding signal (z-score),[23],-0.59
same,glycan array binding signal (z-score),[24],0.002
same,glycan array binding signal (z-score),[25],-0.674
same,glycan array binding signal (z-score),[26],-0.219
same,glycan array binding signal (z-score),[27],-0.78
same,glycan array binding signal (z-score),[28],-0.646
same,glycan array binding signal (z-score),[29],0.053
same,glycan array binding signal (z-score),[30],-0.716
same,glycan array binding signal (z-score),[31],-0.099

# Some of the entries above in a different format:
binder | measurement | setting | value
PX9916F-bfa-443-24-443 (Bacteroides fragilis) (protein) DIRPVGSVIPQTAEEYRALLARAYLNVPNDRGLACLRSDEMLVNDNEYDRNSYGDIERWNDVSPFPGTSQFTWSNFYNVLFIANQVIESQKEITEGTPEVVNQLVGEAHLLRAYLHFVLVNLHGQPYTKSGALNSKSIPLKLDTDLEKTLGRNTVEEVYTSILSDIEHARELINKEKWETVFSYRFNVLSVDALQSRVSLYMGAWPKCLESAEAVLAKKSVLVDMNETPLALPNHFESVESITALEQVMGSSVNNAVWVPATFLALYQEGDKRLAAYFAAPDENGNRKSSKGGKREFSCTFRVGELYLNAAEAAANMDKLPHARMRLLELMRKRYTPEAYDKKENAVNVMDKNALISEILNERARELAFEGHRWFDLRRTTRPRMVKVLQGKTYILEQDDPRYTIPIPRDAIAANPGLAN | glycan array binding signal (z-score) | [12] | 0.244
same | glycan array binding signal (z-score) | Gal(b1-4)Glc | -0.474
